Measurements published in paper PMC9468337.
These are yes or no findings as the source states them, for the method shown. Binding seen in cells or lysates may run through a third protein. Some results given as binding are weak or reduced against the parent protein; the word gives no strength. Blank lines part the entries; values can stand above or below the molecule they belong to.

The chains behind the UniProt entries cited, without tags or fusion partners.
UniProt Q3T906: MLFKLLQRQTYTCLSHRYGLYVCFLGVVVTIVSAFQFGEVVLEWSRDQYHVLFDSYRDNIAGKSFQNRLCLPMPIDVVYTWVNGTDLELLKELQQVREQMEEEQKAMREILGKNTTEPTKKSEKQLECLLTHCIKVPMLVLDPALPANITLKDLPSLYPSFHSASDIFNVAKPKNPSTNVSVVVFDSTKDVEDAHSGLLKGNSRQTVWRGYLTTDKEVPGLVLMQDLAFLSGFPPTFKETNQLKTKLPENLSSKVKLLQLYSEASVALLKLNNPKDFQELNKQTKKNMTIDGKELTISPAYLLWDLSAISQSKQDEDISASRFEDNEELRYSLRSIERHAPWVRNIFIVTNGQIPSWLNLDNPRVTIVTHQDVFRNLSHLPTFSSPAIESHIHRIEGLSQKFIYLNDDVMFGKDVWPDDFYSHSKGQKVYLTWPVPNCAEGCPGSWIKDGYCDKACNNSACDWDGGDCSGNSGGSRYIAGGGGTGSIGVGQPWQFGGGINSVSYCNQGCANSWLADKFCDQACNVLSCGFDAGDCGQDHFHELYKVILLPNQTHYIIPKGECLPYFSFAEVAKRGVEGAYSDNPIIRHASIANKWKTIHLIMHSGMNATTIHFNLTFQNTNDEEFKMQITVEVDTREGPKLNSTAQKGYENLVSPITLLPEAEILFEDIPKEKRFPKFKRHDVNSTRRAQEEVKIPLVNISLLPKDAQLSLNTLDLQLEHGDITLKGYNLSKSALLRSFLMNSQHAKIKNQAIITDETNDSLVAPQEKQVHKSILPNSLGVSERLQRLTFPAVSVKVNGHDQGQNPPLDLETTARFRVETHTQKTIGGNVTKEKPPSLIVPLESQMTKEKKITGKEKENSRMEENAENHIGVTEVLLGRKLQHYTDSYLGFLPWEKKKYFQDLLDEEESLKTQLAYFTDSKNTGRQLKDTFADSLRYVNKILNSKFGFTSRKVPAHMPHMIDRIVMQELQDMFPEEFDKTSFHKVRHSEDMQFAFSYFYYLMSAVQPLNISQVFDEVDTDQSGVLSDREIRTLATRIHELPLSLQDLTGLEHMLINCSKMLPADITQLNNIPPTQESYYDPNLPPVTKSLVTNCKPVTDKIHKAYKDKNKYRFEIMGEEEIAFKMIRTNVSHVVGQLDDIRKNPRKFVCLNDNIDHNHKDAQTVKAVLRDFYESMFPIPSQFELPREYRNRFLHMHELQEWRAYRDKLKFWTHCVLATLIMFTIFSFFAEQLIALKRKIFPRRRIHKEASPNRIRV

Experiments:
[1] = biological target: T1, TMEM251 (GNPTAB cleavage and activity factor), short isoform (human) (UniProt Q8N6I4); test: co-IP; reciprocal IP 48 h after transfection; lysis in 20 mM Tris pH 8.0, 150 mM NaCl, 1% Triton; anti-FLAG M2, anti-V5 or anti-HA beads at 4 °C; washed 4 times with lysis buffer; western blot
T1 sequence: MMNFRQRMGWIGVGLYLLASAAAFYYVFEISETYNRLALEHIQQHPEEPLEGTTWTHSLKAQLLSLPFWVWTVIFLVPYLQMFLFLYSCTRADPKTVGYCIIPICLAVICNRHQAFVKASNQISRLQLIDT

[2] = biological target: GNPTAB (GNPT α/β precursor) (UniProt Q3T906); test: as above

binding [1]: binds
Molecule: GNPTAB (GNPT α/β precursor) (from UniProt Q3T906 1-1256) (enzyme)

binding [2]: binds
B1: TMEM251 (GNPTAB cleavage and activity factor), short isoform (protein, UniProt Q8N6I4-2 1-131)
chain: T1 sequence
